Values quoted from earlier work, collected in patent US10064865B2, “Composition comprising phosphodiesterase type 5 inhibitor for inhibiting apoptosis of nerve cells” (ARIBIO INC., priority 2012, dated 2018).
At least one structure is not confirmed: it was looked up by name or label, or the drawing left a doubt.

Test system: B-chronic lymphocytic leukemia cells
Settings: Marika Sarfati et al., BLOOD 2003; cited from earlier work

With `CCCc1nc(C)c2c(=O)[nH]c(-c3cc(S(=O)(=O)N4CCN(CC)CC4)ccc3OCC)nn12` [vardenafil] as the compound, how does the “apoptosis of B-chronic lymphocytic leukemia cells” value read?
The value was “induce caspase-dependent apoptosis”.
